Source: PubChem BioAssay AID2685 (National Center for Advancing Translational Sciences (NCATS), 2010)
In all, about 320,000 compounds went through this assay and about 2,100 (0.66%) were called active. The inconclusive results got no clear call from the source; some entries with a clear call stand among them for comparison. Calls follow the shape of the dose curve; as a rule, active = well fitted inhibition curve with a large enough effect in the signal ratio, with a control signal flat (not every such curve was filed as active); inconclusive = small, poorly fitted or top-dose-only effect, or effect the other way, or a change in a side signal; inactive = flat fitted curve, though single readings scatter; the % refers to the signal ratio. Potencies of inconclusive entries are doubtful fits and often do not repeat.

experiment: qHTS Assay for Lipid Storage Modulators in Drosophila S3 Cells; settings: BODIPY lipid droplet fluorescence, 18-24 h, cells fed with added oleic acid; lipid storage change, negative = inhibition: at 46.1 µM (top of the series) unless noted
How it was run: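 Drosophila S3 cells loaded with oleic acid (400 uM, as added) and compounds at several concentrations; lipid droplets imaged by 488-nm laser-scanning cytometry, 500–530 nm intensity and object ratio to cell channel. Percent activity normalized to 20 uM Triacsin C.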
% is scaled to controls: 0 for no effect and ±100 for the full control effect; potency is read from the fitted curve at half-maximal effect.

| Structure (SMILES) | Potency | lipid storage change, negative = inhibition |
| --- | --- | --- |
| Cc1ccc(S(=O)(=O)N2CCC(C(=O)Nc3ncccc3O)CC2)cc1 | inconclusive: 29.1 µM [falling, single point] | – |
| CC1(NC(=O)Nc2cc([N+](=O)[O-])ccc2O)CCS(=O)(=O)C1 (stereo not drawn) | – | inconclusive: -21.8% |
| CC(C)Cc1nc(N2CCN(C(=O)Cc3ccccc3)CC2)c(C#N)c2c1COC(C)(C)C2 | – | inconclusive: 51.2% |
| CC(=O)c1c(C)[nH]c(C(=O)Nc2ccc(C)c(C)c2)c1C | inconclusive: 1.3 µM [activator, full curve] | – |
| Cc1ccc(CNC(=O)C(Cc2ccccc2)NS(=O)(=O)c2ccc3c(c2)CCC(=O)N3)cc1 (stereo not drawn) | inconclusive: 6.51 µM [activator, single point] | – |
| COc1ccc(-c2[nH]ncc2CN2CCC(c3ccncc3)CC2)cc1F | – | inconclusive: 5.46% |
| COc1ccc(NC(=O)CSc2nnc(-c3cccnc3)s2)cc1 | inconclusive: 0.731 µM [activator, full curve] | – |
| C=CCN(Cc1ccc(Cl)s1)C(=O)c1cc(S(=O)(=O)N2CCOCC2)ccc1F | – | inconclusive: -21.5% |
| CCC(C)N(CCNC(=O)CC1Oc2ccc(C)cc2NC1=O)C1CCCCC1 (stereo not drawn) | – | inconclusive: 12.1% |
| CCCCn1c(/C=C/c2ccco2)nc2ccccc21 | inconclusive: 29.1 µM [falling, single point] | – |
| Cc1onc(-c2ccccc2)c1C(=O)OCC(=O)NC(=O)c1ccccc1 | – | inconclusive |
| Cc1ccc(NC(=O)C(C)Oc2ccccc2)cc1S(=O)(=O)N1CCCCCC1 (stereo not drawn) | inconclusive: 0.411 µM [activator, partial curve, poor fit] | – |
| Nn1c(SCC(=O)NCCC2=CCCCC2)nnc1C(F)(F)F | inconclusive: 0.58 µM [falling, single point] | – |
| COc1cc(OC)c(-c2c3cc(O)c(=O)cc-3oc3cc(O)c(O)cc23)cc1OC | inconclusive: 5.17 µM [cytotoxic, full curve] | – |
| C/C(N)=C(/C#N)C(=O)COC(=O)c1ccc(O)cc1 | – | inconclusive: 14.4% |
| CCCN1C(=O)/C(=C/C=C2\N(CC)c3ccccc3C2(C)C)SC1=S | inconclusive: 1.3 µM [cytotoxic, full curve] | – |
| CN(C)CCCOc1cccc(Cl)c1 | – | inconclusive: -9.65% |
| CCOc1ccc(N(CC(=O)NC2CCCCC2)C(=O)Cn2nnc(-c3ccc(C)o3)n2)cc1 | – | inconclusive: 37.2% |
| Cc1c(OC(C)C(=O)NC2CC(C)(C)NC(C)(C)C2)ccc2c3c(c(=O)oc12)CCC3 (stereo not drawn) | inconclusive: 20.6 µM [activator, partial curve] | – |
| CCOC(=O)c1cc(NC(=O)CN2CCCC2)cc(C(=O)OCC)c1 | active: 2.31 µM | – |
| CCOC(=O)NC1(C(F)(F)F)NC(=O)N(Cc2ccco2)C1=O (stereo not drawn) | – | inconclusive: -134% |
| COc1ccccc1CN(Cc1nc2ccccc2c(=O)[nH]1)C(=O)Nc1ccccc1C | – | inconclusive: 148% |
| COc1cccc(N/C=C(\C#N)c2ccc(OCCCF)cc2)c1 | – | inconclusive: 156% |
| O=C(NCc1ccccc1)c1ccc2ccccc2n1 | inconclusive: 29.1 µM [activator, single point] | – |

| Structure (SMILES) | Potency | lipid storage change, negative = inhibition |
| --- | --- | --- |
| COc1ccc(C(=O)NNC(=S)NC(=O)c2ccco2)cc1 | – | inactive |
| COc1ccc(CCC(=O)N2CCCc3ccccc32)cc1 | inconclusive: 16.4 µM [falling, single point] | – |
| COCCOC(=O)C1=C(C)NC2=C(C(=O)CC(C)(C)C2)C1c1ccc(N(C)C)cc1 (stereo not drawn) | inconclusive: 6.51 µM [falling, single point] | – |
| COC(=O)c1c(-c2ccccc2OC)sc2ccc(OC)cc12 | inconclusive: 20.6 µM [falling, single point] | – |
| Cc1ccc(Nc2nc(N/N=C/c3c[nH]c4ccccc34)nc(N3CCOCC3)n2)cc1 | inconclusive: 20.6 µM [falling, partial curve, poor fit] | – |
| Cc1ccn2c(=O)nc(SCC(=O)N3CCC(Cc4ccccc4)CC3)nc2c1 | inconclusive: 0.731 µM [falling, partial curve, poor fit] | – |
| OCC1(CCc2ccccc2)CCN(Cc2ccc(OC(F)F)cc2)CC1 | – | inconclusive: 3.74% |
| COc1ccc(-c2nc(CSCC(=O)N3CCC(C(N)=O)CC3)c(C)o2)cc1OC | – | inactive |
| CSc1ccccc1NC(=O)C1CCCO1 (stereo not drawn) | – | inconclusive: -6.95% |
| O=C(COc1ccccc1Cl)Nc1ccc(C(=O)N2CCCCC2)cc1 | – | inconclusive: -3.06% |
| CCNc1nc2ccccc2[nH]1 | inconclusive: 0.0517 µM [falling, full curve] | – |
| Cc1ccc(S(=O)(=O)N2CCN(C(=O)COC(=O)c3cccc(Cl)c3)CC2)c(C)c1 | inconclusive: 29.1 µM [falling, single point] | – |
| COC(=O)c1cc(OC)c(OC)cc1NCC(=O)Nc1ccc(C)cc1 | – | inactive |
| COc1ccc(OCCOCCOc2ccc(C)cc2[N+](=O)[O-])cc1 | inconclusive: 6.51 µM [activator, partial curve] | – |
| Nc1cc(N)nc(SCC(=O)NC2CCCCCCC2)n1 | – | inconclusive |
| Fc1cccc(Cl)c1Cn1nnc2c(-n3ccnc3)ncnc21 | inconclusive: 9.2 µM [activator, partial curve] | – |
| COc1ccc(S(=O)(=O)N(C)c2ccc(C(=O)N3CCN(C)CC3)cc2)cc1 | – | inconclusive: -100% |
| NCC(c1ccco1)c1c[nH]c2ccccc12 (stereo not drawn) | – | inconclusive: 10.3% |
| Cc1nnc(SCC(=O)NCc2ccc(Cl)cc2)[nH]c1=O | inconclusive: 1.84 µM [falling, full curve] | – |
| CC(/C=N/NC(=O)c1cccnc1)=C\c1ccco1 | – | inactive |
| Oc1ccc(Br)cc1-c1cc(-c2ccccc2F)[nH]n1 | – | inconclusive: 35.7% |
| CCOc1ccc(NC(=O)c2ccc(NC(=S)NC3CC3)cc2)cc1 | – | inconclusive: 10.3% |
| O=C(O)c1nc(Cl)c(Cl)c(N/N=C/c2ccccc2C(F)(F)F)c1Cl | – | inconclusive: 130% |
| C=CCN1C(=O)C(Cc2cccc(C)c2)SC1=Nc1ccc(C(=O)O)cc1 (stereo not drawn) | – | inconclusive: -36.6% |

For convenience, 2 of the compounds above:

| Structure (SMILES) | Potency | lipid storage change, negative = inhibition |
| --- | --- | --- |
| Cc1ccn2c(=O)nc(SCC(=O)N3CCC(Cc4ccccc4)CC3)nc2c1 | inconclusive: 0.731 µM [falling, partial curve, poor fit] | – |
| OCC1(CCc2ccccc2)CCN(Cc2ccc(OC(F)F)cc2)CC1 | – | inconclusive: 3.74% |
